Data from paper PMC12040169 (PLOS Biology, 2025).
The other results are listed elsewhere or left out.

system: T1, CTL2-GFP (C. trachomatis L2/434/Bu, GFP-expressing); parameters: species or system HeLa; Intracellular C. trachomatis growth in HeLa cells, bulk GFP fluorescence relative to DMSO; conditions: bulk GFP, single well; 28.5 h, 10 µM; inhibitor
T1 construct: L2/434/Bu, GFP-expressing

Structure (SMILES) | % of control remaining
COc1cc(/C=N/n2c(S)nnc2C(F)(F)F)cc(Br)c1O [CBK265321] | 125.864%
CN(Cc1ccccc1)C(=O)c1ccccc1NC(=O)c1ccccc1 [CBK267818] | 89.3744%
COc1ccc(C)cc1CC(=O)N1CCc2c(sc3ncnc(N)c23)C1 [CBK305878] | 108.494%
O=C(c1ccccc1[N+](=O)[O-])n1nc(-c2cccnc2)nc1NCc1cccs1 [CBK269094] | 116.381%
O=c1c2cc(F)ccc2nc2n1CCN(Cc1cccs1)CC2 [CBK284859] | 82.1793%
O=C(Cn1cnc2ccc(F)cc2c1=O)N1CCOC2CCCCC21 (centres unmarked) [CBK253316] | 110.624%
Cc1cccnc1C(Cc1ccsc1)NC(=O)CCc1ccno1 (centres unmarked) [CBK284804] | 137.673%
CC(=O)c1ccc(C(=O)N2CCC3(CC2)CC(=O)c2ccc4ccccc4c2O3)cc1 [CBK156458] | 128.827%
CN(C)CCN(C)Cc1ccc2ccc3cccc4ccc1c2c34 [CBK261860] | 120.616%
COc1cc(C(=O)N2CCN(C(=O)CC(C)C)CC2)cc(OC)c1OC [CBK003604] | 100%
FC(F)(F)c1ccnc(OCCN2CCOCC2)c1 [CBK113286] | 118.875%
CC(=O)c1sc(NC(=O)c2ccc(Br)o2)nc1C [CBK057948] | 166.803%
COc1ccc(C2(C(=O)NCc3ccc4c(c3)OCO4)CC2)cc1 [CBK149829] | 89.7882%
O=C(O)c1ccc(C(=O)Nc2cccc(NC(=O)C3CCCO3)c2)cc1 (centres unmarked) [CBK268613] | 119.042%
CSc1nc(NC(=O)c2ccoc2)cc(N2CCNCC2)n1 [CBK050314T] | 124.087%
COc1ccc(-c2cc(C(F)(F)F)nc(SCC(=O)N(C)c3ccccc3)n2)cc1OC [CBK267628] | 113.13%
O=S(=O)(Cc1ccc(Br)cc1F)c1ccccn1 [CBK019368] | 99.0258%
COc1ccc2nc(C)c(CCC(=O)O)c(O)c2c1 [CBK286955] | 110.774%
O=C(c1cc2ccccc2[nH]1)N1CCN(Cc2ccccc2)CC1 [CBK200172] | 71.0506%
O=S(=O)(c1c(Cl)cccc1Cl)n1ccc2c(N3CCNCC3)nccc21 [CBK059060C] | 96.6051%
C=CCN1CCCC[C@H]2CN(S(=O)(=O)c3cccc(F)c3)C[C@H]21 [CBK285500] | 95.9392%
CC1(CC(=O)N2CCCCCC2)SC(NC2CCCCCC2)=NC1=O (centres unmarked) [CBK074269] | 83.1285%
O=c1[nH]nc2cc(NCc3ccc(Cl)cc3)ncn12 [CBK288479] | 88.3429%
FC(F)(F)c1ccc(CN2CCCN(c3cc(OC4CCCCC4)ncn3)CC2)cc1 [CBK083277T] | 90.2742%
CN(C)CCN(C)c1nc(-c2ccc3[nH]ccc3c2)cn2ccnc12 [CBK066276] | 115.452%
O=[N+]([O-])c1ccc(Cl)c(C2N(Cc3ccccc3)CCN2Cc2ccccc2)c1 [CBK261601] | 122.701%
CCNS(=O)(=O)c1ccc(NC(=O)c2cc(-c3ccccn3)nc3c(C)c(C)ccc23)cc1 [CBK267733] | 100.257%

Structure (SMILES) | % of control remaining
O=C(O)[C@H](Cc1ccccc1)Nc1ncnc2[nH]cnc12 [CBK287090] | 125.681%
O=C(CCn1c(-c2cccnc2)cc2cccnc21)NC1CC1 [CBK282622] | 127.722%
O=S(=O)(NCC(Sc1ccc(F)cc1)c1ccccc1)c1ccc(Cl)cc1 (centres unmarked) [CBK266306] | 209.995%
FC(F)(F)c1cccc(OCCCc2ccncc2)n1 [CBK115795] | 187.636%
NC(=O)c1c(NC(=O)CSc2ccc(Cl)cc2)sc2c1CCCC2 [CBK263101] | 100%
COC(=O)CCC(=O)N1CCCC2(CCN(C(=O)c3ccoc3)C2)C1 (centres unmarked) [CBK160988] | 145.111%
Fc1cccc2sc(Nc3nc(-c4cccs4)cs3)nc12 [CBK287476] | 140.178%
Cc1ccc(C(=O)NCCCNC(=O)c2ccncc2)cc1 [CBK269477] | 142.328%
CCNc1nnc(-c2c(Cl)c(C)nn2C)s1 [CBK288014] | 132.261%
COCCSc1nc2c(c(=O)[nH]c(=O)n2C)n1CCCc1ccccc1 [CBK140504] | 127.303%
Cc1cccc(=O)n1CCCNc1cc(C2CCOC2)ncn1 (centres unmarked) [CBK306992] | 145.633%
O=C1COc2ccccc2CCCCC2(CCCN(C(=O)CN3CCCC3=O)C2)CN1 (centres unmarked) [CBK291992] | 110.166%
COc1ccc(C(=O)C2=C(O)C(=O)N(CCCN(C)C)C2c2ccc(Cl)c(Cl)c2)cc1 (centres unmarked) [CBK264723] | 113.611%
O=C(O)c1cc(-c2cc(Cl)ccc2Cl)nc2ccccc12 [CBK265391] | 100%
CCN(c1cc(N2CCCNCC2)ccc1NS(=O)(=O)c1cccc2cccnc12)S(C)(=O)=O [CBK000014C] | 127.369%
O=C(N/N=C/c1c(F)cccc1Cl)c1ccccc1O [CBK261815] | 87.693%
Cc1sc2nc(SCc3nc4ccccc4[nH]3)n(-c3ccc(Cl)c(Cl)c3)c(=O)c2c1C [CBK264594] | 115.816%
Nc1c(-c2ccsc2)cnc2ncccc12 [CBK083707] | 134.054%
Cc1cc(C#N)ccc1OCC(=O)NC1CCS(=O)(=O)C1 (centres unmarked) [CBK305816] | 115.746%
O=C(O)CC1SC(=O)N(c2ccccc2)C1=O (centres unmarked) [CBK287085] | 124.307%
O=[N+]([O-])c1ccc(CN2CCN(c3nccnc3OCC3COc4ccccc4O3)CC2)cc1 (centres unmarked) [CBK082791T] | 85.6062%
CCOc1ccc(NC(=O)N(C)Cc2noc(CC(C)C)n2)cc1C#N [CBK307089] | 149.187%
O=C1NCC(C(=O)N2CCC3(CC2)CC(=O)c2cc(Br)ccc2O3)N1 (centres unmarked) [CBK156475] | 125.284%
Cn1nccc1CN1CCC(Oc2ccccc2F)CC1 [CBK281618] | 124.121%
COc1ccc(-n2ncc3c2CC(C)(C)CC3NC(=O)C2CC2)cc1 (centres unmarked) [CBK282337] | 105.247%
Cn1c(SCC(=O)c2ccccc2)nc2ccccc2c1=O [CBK055260] | 100%
N#Cc1cn(S(=O)(=O)c2cccc(C(F)(F)F)c2)nc1N [CBK067225] | 72.9109%

Entries shown so far with a nitro group on carbon:
Structure (SMILES) | % of control remaining
O=C(c1ccccc1[N+](=O)[O-])n1nc(-c2cccnc2)nc1NCc1cccs1 [CBK269094] | 116.381%
O=[N+]([O-])c1ccc(Cl)c(C2N(Cc3ccccc3)CCN2Cc2ccccc2)c1 [CBK261601] | 122.701%
O=[N+]([O-])c1ccc(CN2CCN(c3nccnc3OCC3COc4ccccc4O3)CC2)cc1 (centres unmarked) [CBK082791T] | 85.6062%

(further entries)

Structure (SMILES) | % of control remaining
Cc1ccc(S(=O)(=O)N(C)c2ccnc(N3CCNCC3)n2)cc1 [CBK200009] | 97.3908%
Cc1cnn(CC(=O)N2CCCC(COc3ccccc3F)C2)c1 (centres unmarked) [CBK281999] | 120.797%
Cn1ccnc1C1(O)CC2CCC(C1)N2C(=O)C1CCCC1 (centres unmarked) [CBK284052] | 135.909%
O=c1[nH]c2ncc(-c3cccc4ncccc34)nc2n1C1CCCCC1 [CBK064861] | 90.9373%
CN(C)CCN(C)C(=O)C1CCN(c2cncc(-c3ccc(O)cc3)n2)CC1 [CBK126928T] | 133.992%
Cc1nc2c3ccccc3nc(SCC(=O)Nc3ccccc3)n2n1 [CBK295205] | 119.058%
CC(C)(C)c1cc(CCCOC(=O)CNc2ccccc2)cc(C(C)(C)C)c1O [CBK261939] | 103.702%
CCc1nnc(SCC(=O)Nc2cccc(OC)c2)[nH]1 [CBK270226] | 106.795%
CCCCOc1ccc2c(C(F)(F)F)cc(=O)oc2c1 [CBK097821] | 99.1995%
COCC(=O)N1CCN2C(=O)N(Cc3ccccc3)C(=O)[C@H]2C1 [CBK289641] | 142.709%
O=C(O)c1c2c(nc3ccccc13)C(=Cc1ccc3c(c1)OCCO3)CC2 [CBK297479] | 142.096%
Cc1cc(C(=O)N2CCc3c(sc4ncnc(N)c34)C2)on1 [CBK306067] | 94.6332%
CCOc1ccccc1CN1CC2CCCN2C[C@@H]1C (some centres unmarked) [CBK285435] | 109.536%
Cn1cc(-c2nc(C3COCCN3Cc3c(F)cccc3Cl)no2)cn1 (centres unmarked) [CBK305441] | 122.328%
CC1CCc2onc(C(=O)Nc3ccncc3)c2C1 (centres unmarked) [CBK288080] | 85.3736%
Cc1cc(Cn2nnc(-c3ccc(Br)cc3)n2)cc(C)c1O [CBK291129] | 99.3998%
O=C(c1ccncc1)N1CCc2cc(S(=O)(=O)N3CCOCC3)ccc21 [CBK287800] | 109.123%
CCn1c(C)nc2cc(NC(=O)Cn3cccc(C(=O)NC4CCCCC4)c3=O)ccc21 [CBK286042] | 122.653%
CCN1CCc2cc(-c3cncn3CC(=O)NC(C)(C)C)ccc21 [CBK281698] | 113.53%
CC(C)(C)c1ccc(OCCCC(=O)Nc2ccc(N3CCOCC3)cc2)cc1 [CBK264783] | 116.805%
COc1ccc(C(=O)C2=C(O)C(=O)N(CCN3CCOCC3)C2c2ccc(O)c(OC)c2)c(C)c1 (centres unmarked) [CBK264858] | 100%
O=c1[nH]cc(-c2ccc(F)cc2)cc1CNCc1ccc(F)cc1 [CBK284695] | 137.458%
CC(O)CNCCNCc1cccs1 (centres unmarked) [CBK278279C] | 115.108%
C=CCn1c(-c2sc(NC(=O)Cn3c(=O)n(CCC)c4ccccc43)nc2C)n[nH]c1=S [CBK297890] | 129.862%
CCCc1[nH]nc(O)c1C(=O)c1c(Cl)cccc1Cl [CBK093553] | 122.462%
CC1(C)CN(c2ccc(S(N)(=O)=O)cc2)C1=O [CBK020416] | 119.964%
